Laboratory results reported in US20220015402A1, “Mint Flavor Compositions” (The Procter & Gamble Company, priority 2020, published 2022).

Tests used:
[1] = Expert sensory testing of racemic menthol vs (−)-menthol in toothpaste (CREST Cavity) with standard spearmint flavor; format: in vivo
Procedure: In separate, unpublished internal experiments, perceptual experiences of racemic menthol are quantified via expert sensory testing. The use of a standard spearmint flavor (minimizing extra menthol contribution) compared racemic menthol to (−)-menthol in a toothpaste formulation (CREST Cavity). There are several sensory observations taken from these experiments. […] These aromatic notes appear during brushing and disappear after 5-10 minutes post expectoration and are more pronounced as concentrations increase.

[2] = Odor/taste character description by expert flavorists (internal unpublished research); conditions: expert flavorist's description
Source text: An aspect of the invention provides for a mint flavor composition comprising: a mint flavor component that is racemic menthol and an additional mint flavor component, preferably a combination of racemic menthol and (−)-menthol, more preferably a combination of racemic menthol and (−)-menthol while minimizing the amount of neomenthol, isomenthol, and neoisomenthol. The combination provides the benefits of a cooling sensation, minimizing negatives from less desirable stereoisomers, while being cost effective. Menthol has three chiral centers, and thus has eight stereoisomers, specifically (+)-menthol, (+)-isomenthol, (+)-neomenthol, (+)-neosiomenthol, (−)-menthol, (−)-isomenthol, (−)-neomenthol, and (−)-neoisomenthol. Natural menthol primarily exists as the (1R,2S,5R)-stereoisomer form, also known as (−)-menthol, accounting for perhaps 35-50% of the aroma chemicals present in natural peppermint oil. […]
An aspect of the invention provides for a mint flavor composition comprising: a mint flavor component that is alpha-pinene and an additional mint flavor component. […] Preferably the alpha-pinene has a peak area percent from 1.90-5, preferably 2.00-4, more preferably 2.20-3.5, as determined by Lei-Hoke Method I. Preferably a peak area ratio of (−)-alpha-pinene:(+)-alpha-pinene is from 3.0-6, preferably 3.1-5, more preferably 3.2-4.7, alternatively 3.5-4.5, as determined by Lei-Hoke Method IV. […]

CC1CCC(C(C)C)C(O)C1 (racemic) [Racemic Menthol, racemic menthol]
aromatic character ([1]; at higher concentration (greater than 5,000 part per million), during brushing): pencil lead, burnt rubber, shoe rubber/leather and motor oil | time after which the aromatic notes disappear post expectoration ([1]; higher concentration (greater than 5,000 part per million)): 5 to 10 min | differences vs (−)-menthol detected in the oral cavity for all sensory attributes measured ([1]; toothpaste): no meaningful differences | differences vs (−)-menthol in peppery burn, cooling vapors, thermal diffusion and cold ([1]; toothpaste): no meaningful differences

CC1CCC(C(C)C)C(O)C1 (single isomer, unassigned; (-)) [(−)-Menthol, (−)-menthol]
perception compared with racemic menthol ([1]; at equivalent concentration, toothpaste): colder, more minty, less bitter, less drying and delivers a high overall clean mouth sensation

CC1=CC[C@@H]2C[C@H]1C2(C)C [(+)-alpha-pinene]
odor/aroma character [2]: reminiscent of a green apple

CC1=CC[C@H]2C[C@@H]1C2(C)C [(−)-alpha-pinene]
odor/aroma character [2]: animalic and sweaty
